In the assay the target is myc-NRAS^G12V (human) (UniProt P01111). Description: co-IP; 293T lysates (50 mM Tris pH 8.0, 100 mM NaCl, 0.5 mM EDTA, 1% Triton X-100); myc-RAS precipitated with α-myc on Dynabeads Protein G, PIP5K1A-V5 detected by α-V5 immunoblot.

Amino acid sequences for entries named in this document (tags omitted). A change or cut given only in a name is not applied to a line headed by its entry. Chains listed by the source or under a name are the forms on record and can include a tag or linker.
myc-NRAS^G12V (P01111, form named): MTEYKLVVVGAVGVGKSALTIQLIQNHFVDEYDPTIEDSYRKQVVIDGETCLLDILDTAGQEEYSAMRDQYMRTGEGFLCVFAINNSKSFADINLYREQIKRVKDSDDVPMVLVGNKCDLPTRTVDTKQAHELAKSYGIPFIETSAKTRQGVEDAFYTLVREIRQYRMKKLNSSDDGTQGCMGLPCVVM
UniProt Q99755: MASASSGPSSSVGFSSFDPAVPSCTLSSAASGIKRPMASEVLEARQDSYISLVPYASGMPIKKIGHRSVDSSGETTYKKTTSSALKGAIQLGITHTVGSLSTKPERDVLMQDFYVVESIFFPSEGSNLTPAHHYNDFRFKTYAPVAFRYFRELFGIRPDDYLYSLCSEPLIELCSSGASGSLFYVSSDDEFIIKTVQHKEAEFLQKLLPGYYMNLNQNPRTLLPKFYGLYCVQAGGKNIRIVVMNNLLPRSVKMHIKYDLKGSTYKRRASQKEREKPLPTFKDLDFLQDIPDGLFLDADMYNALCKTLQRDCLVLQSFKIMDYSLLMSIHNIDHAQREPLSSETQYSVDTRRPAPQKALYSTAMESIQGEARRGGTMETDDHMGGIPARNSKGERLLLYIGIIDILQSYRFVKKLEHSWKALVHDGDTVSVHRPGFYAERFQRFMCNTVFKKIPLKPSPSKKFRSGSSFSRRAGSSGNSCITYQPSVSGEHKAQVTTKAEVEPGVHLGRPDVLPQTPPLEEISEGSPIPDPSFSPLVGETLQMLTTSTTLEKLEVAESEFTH

These are yes or no findings as the source states them, for the method shown. Binding seen in cells or lysates may run through a third protein.

As to PIP5K1A-V5 (from UniProt Q99755 1-562), the binding entry is given as “no binding”.
